This is one part of the list. The calls rarely recur for the same compound in another form.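 In K562 cells expressing nanoluciferase-fused kinases, luminescence was recorded at 4 h intervals between 2 and 18 h, normalized as percent of control with DMSO at 100% and a positive control at 0%. A significant (2 sigma) signal drop marks a time point as decreased. The authors' rule for a hit is not shown and takes in more than the number of time points.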
Experiments:
Assay in all cases: number of time points (of 5) at which kinase-Nluc abundance scored as decreased, DMSO-normalised (count); higher = more persistent destabilization
Conditions in all cases: K562; 2-18 h
EGFR_L861Q = EGFR_L861Q (UniProt P00533)
EGFR_T790M = EGFR_T790M (UniProt P00533)
EPHA2 = EPHA2 (UniProt P29317)
ERBB3 = ERBB3 (UniProt P21860)
[1] = target: ERBB4_R711C (clone: ERBB4_mut) (UniProt Q15303)
ERN1 = ERN1 (UniProt O75460)
FGFR1 = FGFR1 (UniProt P11362)
FGFR2 = FGFR2 (UniProt P21802)
FGFR3 = FGFR3 (UniProt P22607)
FGR = FGR (UniProt P09769)

Amino acid sequences for entries named in this document (tags omitted). A change or cut given only in a name is not applied to a line headed by its entry.
UniProt P29317, whole entry: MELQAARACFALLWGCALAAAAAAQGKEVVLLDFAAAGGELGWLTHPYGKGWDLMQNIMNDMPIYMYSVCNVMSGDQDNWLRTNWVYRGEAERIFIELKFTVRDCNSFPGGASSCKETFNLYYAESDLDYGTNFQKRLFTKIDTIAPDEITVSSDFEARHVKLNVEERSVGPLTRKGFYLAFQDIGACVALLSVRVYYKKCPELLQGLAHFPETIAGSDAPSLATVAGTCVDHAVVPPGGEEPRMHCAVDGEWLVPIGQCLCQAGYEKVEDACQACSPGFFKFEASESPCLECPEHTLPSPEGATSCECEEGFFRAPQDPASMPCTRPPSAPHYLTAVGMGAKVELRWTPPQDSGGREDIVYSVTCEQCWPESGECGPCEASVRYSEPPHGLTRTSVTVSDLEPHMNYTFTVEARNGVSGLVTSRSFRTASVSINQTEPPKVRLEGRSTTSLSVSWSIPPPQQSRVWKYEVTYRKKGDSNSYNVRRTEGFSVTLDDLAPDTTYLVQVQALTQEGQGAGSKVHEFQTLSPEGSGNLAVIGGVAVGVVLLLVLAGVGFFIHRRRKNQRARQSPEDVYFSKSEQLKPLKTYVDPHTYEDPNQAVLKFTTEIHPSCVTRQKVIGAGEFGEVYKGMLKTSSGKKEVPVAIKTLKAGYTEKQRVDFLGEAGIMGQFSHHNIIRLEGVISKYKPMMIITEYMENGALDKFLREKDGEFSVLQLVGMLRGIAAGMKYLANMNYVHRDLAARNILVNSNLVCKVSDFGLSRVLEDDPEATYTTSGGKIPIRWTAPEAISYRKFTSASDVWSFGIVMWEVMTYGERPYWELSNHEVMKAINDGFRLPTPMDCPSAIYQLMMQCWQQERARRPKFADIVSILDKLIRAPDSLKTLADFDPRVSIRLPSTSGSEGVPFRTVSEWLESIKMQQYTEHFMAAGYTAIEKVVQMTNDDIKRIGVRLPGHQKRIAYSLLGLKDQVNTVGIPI
UniProt P21860, whole entry: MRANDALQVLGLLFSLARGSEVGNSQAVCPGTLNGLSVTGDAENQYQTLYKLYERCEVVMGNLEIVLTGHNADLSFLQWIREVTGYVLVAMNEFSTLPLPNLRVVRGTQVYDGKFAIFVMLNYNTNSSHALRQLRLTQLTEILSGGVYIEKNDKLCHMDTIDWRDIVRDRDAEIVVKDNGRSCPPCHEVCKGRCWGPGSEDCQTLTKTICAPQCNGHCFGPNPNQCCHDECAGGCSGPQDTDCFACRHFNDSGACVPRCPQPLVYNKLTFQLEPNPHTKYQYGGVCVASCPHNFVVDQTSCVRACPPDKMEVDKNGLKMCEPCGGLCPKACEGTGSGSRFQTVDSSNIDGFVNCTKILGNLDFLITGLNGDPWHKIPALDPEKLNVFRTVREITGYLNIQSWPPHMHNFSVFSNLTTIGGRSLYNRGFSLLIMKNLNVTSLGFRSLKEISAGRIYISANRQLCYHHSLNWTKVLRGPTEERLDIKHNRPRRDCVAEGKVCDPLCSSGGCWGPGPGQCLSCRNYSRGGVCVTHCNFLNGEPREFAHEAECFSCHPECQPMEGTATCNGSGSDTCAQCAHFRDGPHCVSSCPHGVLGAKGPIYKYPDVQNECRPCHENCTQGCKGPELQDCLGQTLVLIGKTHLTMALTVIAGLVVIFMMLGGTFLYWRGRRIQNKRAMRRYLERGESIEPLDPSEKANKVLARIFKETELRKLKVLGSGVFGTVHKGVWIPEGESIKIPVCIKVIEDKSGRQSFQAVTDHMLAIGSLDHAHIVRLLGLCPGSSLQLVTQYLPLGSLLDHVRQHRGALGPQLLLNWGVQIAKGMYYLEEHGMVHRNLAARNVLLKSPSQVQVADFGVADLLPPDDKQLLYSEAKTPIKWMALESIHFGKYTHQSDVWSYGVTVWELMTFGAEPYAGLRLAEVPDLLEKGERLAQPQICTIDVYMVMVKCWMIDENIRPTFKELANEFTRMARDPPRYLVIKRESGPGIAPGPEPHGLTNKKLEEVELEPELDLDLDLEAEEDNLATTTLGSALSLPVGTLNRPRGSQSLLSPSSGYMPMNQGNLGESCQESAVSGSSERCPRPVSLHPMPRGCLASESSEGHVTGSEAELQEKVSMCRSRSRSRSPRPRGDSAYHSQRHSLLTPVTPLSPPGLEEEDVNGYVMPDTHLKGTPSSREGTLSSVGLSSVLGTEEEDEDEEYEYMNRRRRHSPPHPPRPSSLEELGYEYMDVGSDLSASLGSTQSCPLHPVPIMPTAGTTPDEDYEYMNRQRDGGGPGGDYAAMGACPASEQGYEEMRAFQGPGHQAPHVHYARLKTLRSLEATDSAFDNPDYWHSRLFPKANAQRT
UniProt O75460: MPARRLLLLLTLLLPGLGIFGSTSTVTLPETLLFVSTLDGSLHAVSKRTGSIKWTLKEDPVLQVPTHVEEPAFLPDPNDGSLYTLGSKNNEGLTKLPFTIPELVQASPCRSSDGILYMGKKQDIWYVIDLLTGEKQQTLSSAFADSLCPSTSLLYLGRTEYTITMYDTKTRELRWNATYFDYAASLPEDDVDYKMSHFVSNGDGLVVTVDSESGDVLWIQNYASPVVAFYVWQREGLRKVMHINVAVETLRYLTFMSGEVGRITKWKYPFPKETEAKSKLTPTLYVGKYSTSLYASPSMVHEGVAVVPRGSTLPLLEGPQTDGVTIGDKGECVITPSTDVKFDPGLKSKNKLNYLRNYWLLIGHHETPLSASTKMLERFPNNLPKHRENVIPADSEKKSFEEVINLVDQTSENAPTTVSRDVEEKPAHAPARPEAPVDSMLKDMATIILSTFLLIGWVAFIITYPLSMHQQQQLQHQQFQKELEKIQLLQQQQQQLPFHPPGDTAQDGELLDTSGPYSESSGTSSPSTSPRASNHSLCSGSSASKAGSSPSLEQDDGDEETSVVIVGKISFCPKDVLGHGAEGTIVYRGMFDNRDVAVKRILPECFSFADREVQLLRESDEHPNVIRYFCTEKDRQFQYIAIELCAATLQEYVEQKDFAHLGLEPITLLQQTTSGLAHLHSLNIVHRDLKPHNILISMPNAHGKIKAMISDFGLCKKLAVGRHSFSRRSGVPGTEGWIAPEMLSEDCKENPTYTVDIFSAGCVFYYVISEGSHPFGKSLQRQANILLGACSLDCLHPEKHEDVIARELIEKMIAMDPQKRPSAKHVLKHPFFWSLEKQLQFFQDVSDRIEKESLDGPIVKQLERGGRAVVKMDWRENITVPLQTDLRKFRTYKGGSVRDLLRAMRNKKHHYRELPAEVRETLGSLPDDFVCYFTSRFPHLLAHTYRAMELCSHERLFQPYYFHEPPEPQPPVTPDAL
UniProt P11362, whole entry, looked up: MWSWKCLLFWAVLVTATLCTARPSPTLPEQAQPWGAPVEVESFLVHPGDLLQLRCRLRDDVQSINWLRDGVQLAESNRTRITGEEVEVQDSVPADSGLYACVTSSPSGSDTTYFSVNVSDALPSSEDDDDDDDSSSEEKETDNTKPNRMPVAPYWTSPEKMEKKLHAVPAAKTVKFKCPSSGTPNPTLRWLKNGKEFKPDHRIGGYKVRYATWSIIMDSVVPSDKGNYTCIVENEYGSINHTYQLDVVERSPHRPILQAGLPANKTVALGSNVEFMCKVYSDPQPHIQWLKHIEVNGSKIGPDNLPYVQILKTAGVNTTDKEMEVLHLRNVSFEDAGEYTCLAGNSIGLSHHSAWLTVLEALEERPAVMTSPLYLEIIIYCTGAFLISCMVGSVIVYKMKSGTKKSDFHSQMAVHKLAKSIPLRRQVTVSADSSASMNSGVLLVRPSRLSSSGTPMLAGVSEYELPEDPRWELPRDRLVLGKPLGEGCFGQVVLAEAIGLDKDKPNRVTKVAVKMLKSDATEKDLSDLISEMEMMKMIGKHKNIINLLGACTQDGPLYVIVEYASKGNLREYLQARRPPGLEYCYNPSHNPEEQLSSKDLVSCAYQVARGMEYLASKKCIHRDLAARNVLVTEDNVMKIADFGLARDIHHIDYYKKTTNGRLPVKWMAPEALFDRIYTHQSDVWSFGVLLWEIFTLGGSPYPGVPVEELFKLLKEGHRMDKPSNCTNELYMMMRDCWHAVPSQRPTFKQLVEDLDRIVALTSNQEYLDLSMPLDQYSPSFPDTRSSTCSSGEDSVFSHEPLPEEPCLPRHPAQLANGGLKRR
UniProt P21802, whole entry, looked up: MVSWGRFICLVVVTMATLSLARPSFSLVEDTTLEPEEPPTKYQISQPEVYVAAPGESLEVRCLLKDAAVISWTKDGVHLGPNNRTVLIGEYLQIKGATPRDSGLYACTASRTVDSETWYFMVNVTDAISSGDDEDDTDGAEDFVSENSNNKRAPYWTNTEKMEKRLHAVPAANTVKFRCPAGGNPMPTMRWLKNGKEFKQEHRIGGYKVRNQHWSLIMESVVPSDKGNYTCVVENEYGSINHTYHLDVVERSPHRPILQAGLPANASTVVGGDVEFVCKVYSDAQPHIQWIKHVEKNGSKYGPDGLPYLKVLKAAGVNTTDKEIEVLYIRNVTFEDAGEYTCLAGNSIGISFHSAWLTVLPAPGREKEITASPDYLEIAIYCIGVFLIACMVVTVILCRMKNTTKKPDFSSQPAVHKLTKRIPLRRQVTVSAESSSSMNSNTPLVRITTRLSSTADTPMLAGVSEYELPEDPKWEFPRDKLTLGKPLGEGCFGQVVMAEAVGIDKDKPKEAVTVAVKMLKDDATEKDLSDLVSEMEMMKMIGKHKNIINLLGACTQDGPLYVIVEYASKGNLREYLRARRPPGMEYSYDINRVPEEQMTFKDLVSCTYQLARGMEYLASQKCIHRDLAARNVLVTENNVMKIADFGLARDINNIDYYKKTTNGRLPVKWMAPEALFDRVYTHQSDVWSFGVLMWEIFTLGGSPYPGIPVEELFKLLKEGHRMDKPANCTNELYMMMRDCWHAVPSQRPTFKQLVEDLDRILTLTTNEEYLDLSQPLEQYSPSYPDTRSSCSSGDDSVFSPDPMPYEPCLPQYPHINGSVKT
UniProt P22607, whole entry, looked up: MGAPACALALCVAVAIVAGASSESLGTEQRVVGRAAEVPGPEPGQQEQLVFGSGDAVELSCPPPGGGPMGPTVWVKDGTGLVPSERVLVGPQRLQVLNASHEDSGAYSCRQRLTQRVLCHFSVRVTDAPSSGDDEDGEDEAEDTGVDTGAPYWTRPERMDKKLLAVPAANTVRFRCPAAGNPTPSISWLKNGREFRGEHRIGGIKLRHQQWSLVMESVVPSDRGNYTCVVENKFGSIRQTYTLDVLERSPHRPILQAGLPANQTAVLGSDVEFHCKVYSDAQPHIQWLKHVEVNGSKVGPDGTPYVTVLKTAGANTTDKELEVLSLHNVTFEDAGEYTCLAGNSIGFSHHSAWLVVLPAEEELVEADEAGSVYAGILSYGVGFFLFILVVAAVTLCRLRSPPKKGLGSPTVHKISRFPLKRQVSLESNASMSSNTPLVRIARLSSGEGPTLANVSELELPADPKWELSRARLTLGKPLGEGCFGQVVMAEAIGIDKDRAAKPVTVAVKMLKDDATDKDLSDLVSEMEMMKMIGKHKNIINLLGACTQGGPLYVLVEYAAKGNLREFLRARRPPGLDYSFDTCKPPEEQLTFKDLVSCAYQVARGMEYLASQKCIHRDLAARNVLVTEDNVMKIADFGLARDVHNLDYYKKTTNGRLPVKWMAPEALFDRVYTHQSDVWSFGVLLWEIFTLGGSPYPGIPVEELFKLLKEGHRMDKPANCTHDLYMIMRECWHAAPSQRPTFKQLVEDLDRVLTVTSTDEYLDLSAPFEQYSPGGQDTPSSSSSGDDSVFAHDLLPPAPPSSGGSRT

Measured: number of time points

COc1cnccc1Nc1nc(-c2nn(Cc3c(F)cc(OCCO)cc3F)c3ccccc23)ncc1OC (10 µM)
0: EGFR_L861Q | EGFR_T790M | EPHA2 | ERBB3 | [1] | ERN1 | FGFR1 | FGFR2 | FGFR3 | FGR

CNC(=O)c1cc(Oc2ccc3nc(N[C@@H]4CCCC[C@H]4O)sc3c2)ccn1 (10 µM)
0: EGFR_L861Q | EGFR_T790M | EPHA2 | ERBB3 | [1] | ERN1 | FGFR1 | FGFR2 | FGFR3 | FGR

COc1c(O)cc2oc3cc(O)c(CC=C(C)C)c(O)c3c(=O)c2c1CCC(C)(C)O [Garcinone D] (2.5 µM)
0: EGFR_L861Q | EGFR_T790M | EPHA2 | ERBB3 | [1] | ERN1 | FGFR1 | FGFR2 | FGFR3 | FGR

O=C(Nc1cccc(-c2nncn2C2CC2)c1)c1cc(-n2cnc(C3CC3)c2)ccn1 (10 µM)
0: EGFR_L861Q | EGFR_T790M | EPHA2 | ERBB3 | [1] | ERN1 | FGFR2 | FGFR3 | FGR
1: FGFR1

Nc1ncc(-c2ccc(C(=O)N3CCNCC3)cc2)nc1-c1ccc(C(F)(F)F)cc1 (10 µM)
0: EGFR_L861Q | EGFR_T790M | EPHA2 | ERBB3 | [1] | ERN1 | FGFR1 | FGFR2 | FGFR3 | FGR

COc1ccc2c(Oc3ccc(NC(=O)c4c(C)n(CC(C)(C)O)n(-c5ccccc5)c4=O)cc3F)ccnc2c1 (2.5 µM)
2: [1]
1: EGFR_L861Q | FGFR2
0: EGFR_T790M | EPHA2 | ERN1 | FGFR1 | FGFR3 | FGR
3: ERBB3

C[C@@H]1C[C@H]2O[C@@]3(O[C@@H]2C(C)(C)O)[C@H](O)[C@@]2(C)[C@@H]4CC[C@H]5C(C)(C)[C@@H](O[C@@H]6OC[C@H](O)[C@H](O)[C@H]6O)CC[C@@]56C[C@@]46CC[C@]2(C)[C@@H]13 [Cimiracemoside C] (10 µM)
0: EGFR_L861Q | EGFR_T790M | EPHA2 | ERBB3 | [1] | ERN1 | FGFR1 | FGFR2 | FGFR3 | FGR

C=CC(=O)Nc1cccc(-n2c(=O)cc(C)c3cnc(Nc4ccc(OCCN(C)C)cc4OC)nc32)c1 (10 µM)
0: EGFR_L861Q | EGFR_T790M | EPHA2 | ERBB3 | ERN1 | FGFR1 | FGFR2 | FGFR3 | FGR
1: [1]

CN1CCN(CCCNc2ncc(Cl)c(-c3cc4c(C(=O)NC5CC5)cccc4s3)n2)CC1 (10 µM)
0: EGFR_L861Q | EGFR_T790M | EPHA2 | ERBB3 | [1] | ERN1 | FGFR1 | FGFR2 | FGFR3 | FGR

Cc1cccc(-c2[nH]ncc2-c2ccc3ncccc3n2)n1 (10 µM)
0: EGFR_L861Q | EGFR_T790M | EPHA2 | ERBB3 | [1] | ERN1 | FGFR1 | FGFR2 | FGFR3 | FGR

COc1cc(N2CCC(O)CC2)ccc1Nc1cc(Nc2ccccc2S(=O)(=O)C(C)C)c2cc[nH]c2n1 (10 µM)
0: EGFR_L861Q | EGFR_T790M | EPHA2 | ERBB3 | [1] | ERN1 | FGFR1 | FGFR2 | FGFR3 | FGR

Arranged by heavy-atom count (descending): 3 of the compounds above
C[C@@H]1C[C@H]2O[C@@]3(O[C@@H]2C(C)(C)O)[C@H](O)[C@@]2(C)[C@@H]4CC[C@H]5C(C)(C)[C@@H](O[C@@H]6OC[C@H](O)[C@H](O)[C@H]6O)CC[C@@]56C[C@@]46CC[C@]2(C)[C@@H]13 [Cimiracemoside C] (10 µM)
0: EGFR_L861Q | EGFR_T790M | EPHA2 | ERBB3 | [1] | ERN1 | FGFR1 | FGFR2 | FGFR3 | FGR

C=CC(=O)Nc1cccc(-n2c(=O)cc(C)c3cnc(Nc4ccc(OCCN(C)C)cc4OC)nc32)c1 (10 µM)
0: EGFR_L861Q | EGFR_T790M | EPHA2 | ERBB3 | ERN1 | FGFR1 | FGFR2 | FGFR3 | FGR
1: [1]

CN1CCN(CCCNc2ncc(Cl)c(-c3cc4c(C(=O)NC5CC5)cccc4s3)n2)CC1 (10 µM)
0: EGFR_L861Q | EGFR_T790M | EPHA2 | ERBB3 | [1] | ERN1 | FGFR1 | FGFR2 | FGFR3 | FGR

More results

C=CC(=O)N1CCC[C@@H](n2nc(C(=O)Nc3ccc(CC(=O)N(C)C)c(C)c3C)c3c(N)ncnc32)C1 (10 µM)
0: EGFR_L861Q | EGFR_T790M | EPHA2 | ERBB3 | [1] | ERN1 | FGFR1 | FGFR2 | FGFR3 | FGR

CC(C)c1cnn2c(NCc3ccccc3-n3cccn3)nc(OC3CCCNC3)nc12 (stereo not given) (2.5 µM)
1: EGFR_L861Q | EPHA2 | ERN1
0: EGFR_T790M | ERBB3 | FGFR1 | FGFR2 | FGFR3 | FGR
2: [1]

COc1ncc(Nc2ncc([C@@H](C)N3CCN(S(C)(=O)=O)CC3)cc2-c2nc(C)nc(N)n2)cc1F (10 µM)
0: EGFR_L861Q | EGFR_T790M | EPHA2 | ERBB3 | [1] | ERN1 | FGFR1 | FGFR2 | FGFR3 | FGR

O=c1ccoc2cc(O)ccc12 [7-Hydroxy-4H-chromen-4-one] (10 µM)
0: EGFR_L861Q | EGFR_T790M | EPHA2 | ERBB3 | [1] | ERN1 | FGFR1 | FGFR2 | FGFR3 | FGR

O=C1NC(=O)C(=Cc2ccc3c(c2)OCO3)S1 (10 µM)
0: EGFR_L861Q | EGFR_T790M | EPHA2 | ERBB3 | [1] | ERN1 | FGFR1 | FGFR2 | FGFR3 | FGR

CC[C@@H]1C(=O)N(C)c2cnc(Nc3ccc(C(=O)N[C@H]4CC[C@H](N5CCN(CC6CC6)CC5)CC4)cc3OC)nc2N1C(C)C [Volasertib] (2.5 µM)
0: EGFR_T790M | EPHA2 | ERBB3 | ERN1 | FGFR1 | FGFR2 | FGFR3 | FGR
1: EGFR_L861Q | [1]

From the supplement of paper PMC12823440, “Inhibitors supercharge kinase turnover through native proteolytic circuits” (Nature, 2025)
